Residues, ends and D or L forms follow the SMILES beside them.
Assays:
peptide made by a vendor = conditions: whole synthesis, 220 nm
[1] = tested on: bacterial cells over human erythrocytes; conditions: calculated as HC10/GM

| Molecule | final HPLC purity (peptide made by a vendor) [%] | Therapeutic Index (TI) [1] |
| --- | --- | --- |
| KWKLFKKI-NH2 | 95.74 |  |
| KWKLFKKIRFGRFLRKIRRFRPK-NH2 | 95.72 |  |
| KWKLFKKIWWPFLRR-NH2 | 97.42 |  |
| CC[C@H](C)[C@H](NC(=O)[C@H](CCCCN)NC(=O)[C@H](CCCCN)NC(=O)[C@H](Cc1ccccc1)NC(=O)[C@H](CC(C)C)NC(=O)[C@H](CCCCN)NC(=O)[C@H](Cc1c[nH]c2ccccc12)NC(=O)[C@@H](N)CCCCN)C(=O)N[C@@H](Cc1c[nH]c2ccccc12)C(=O)N[C@@H](Cc1c[nH]c2ccccc12)C(=O)N1CCC[C@H]1C(=O)N[C@@H](Cc1ccccc1)C(=O)N[C@@H](CC(C)C)C(=O)N[C@@H](CCCNC(=N)N)C(=O)N[C@@H](CCCNC(=N)N)C(N)=O [CA-TP] (H-KWKLFKKIWWPFLRR-NH2) |  | 18.26 |
| RFGRFLRKIRRFRPK-NH2 | 99.25 |  |
| CC[C@H](C)[C@H](NC(=O)[C@H](CCCCN)NC(=O)[C@H](CCCCN)NC(=O)[C@H](Cc1ccccc1)NC(=O)[C@H](CC(C)C)NC(=O)[C@H](CCCCN)NC(=O)[C@H](Cc1c[nH]c2ccccc12)NC(=O)[C@@H](N)CCCCN)C(=O)N[C@@H](CCCNC(=N)N)C(=O)N[C@@H](Cc1ccccc1)C(=O)NCC(=O)N[C@@H](CCCNC(=N)N)C(=O)N[C@@H](Cc1ccccc1)C(=O)N[C@@H](CC(C)C)C(=O)N[C@@H](CCCNC(=N)N)C(=O)N[C@@H](CCCCN)C(=O)N[C@H](C(=O)N[C@@H](CCCNC(=N)N)C(=O)N[C@@H](CCCNC(=N)N)C(=O)N[C@@H](Cc1ccccc1)C(=O)N[C@@H](CCCNC(=N)N)C(=O)N1CCC[C@H]1C(=O)N[C@@H](CCCCN)C(N)=O)[C@@H](C)CC [CA-FO] (H-KWKLFKKIRFGRFLRKIRRFRPK-NH2) |  | 41.80 |
| CC(C)C[C@H](NC(=O)[C@H](Cc1ccccc1)NC(=O)[C@@H]1CCCN1C(=O)[C@H](Cc1c[nH]c2ccccc12)NC(=O)[C@@H](N)Cc1c[nH]c2ccccc12)C(=O)N[C@@H](CCCNC(=N)N)C(=O)N[C@@H](CCCNC(=N)N)C(N)=O [TP] (H-WWPFLRR-NH2) |  | 0.34 |
| CC[C@H](C)[C@H](NC(=O)[C@H](CCCCN)NC(=O)[C@H](CCCCN)NC(=O)[C@H](Cc1ccccc1)NC(=O)[C@H](CC(C)C)NC(=O)[C@H](CCCCN)NC(=O)[C@H](Cc1c[nH]c2ccccc12)NC(=O)[C@@H](N)CCCCN)C(N)=O [CA] (H-KWKLFKKI-NH2) |  | 0.08 |
| CC[C@H](C)[C@H](NC(=O)[C@H](CCCCN)NC(=O)[C@H](CCCNC(=N)N)NC(=O)[C@H](CC(C)C)NC(=O)[C@H](Cc1ccccc1)NC(=O)[C@H](CCCNC(=N)N)NC(=O)CNC(=O)[C@H](Cc1ccccc1)NC(=O)[C@@H](N)CCCNC(=N)N)C(=O)N[C@@H](CCCNC(=N)N)C(=O)N[C@@H](CCCNC(=N)N)C(=O)N[C@@H](Cc1ccccc1)C(=O)N[C@@H](CCCNC(=N)N)C(=O)N1CCC[C@H]1C(=O)N[C@@H](CCCCN)C(N)=O [FO] (H-RFGRFLRKIRRFRPK-NH2) |  | 0.11 |
| WWPFLRR-NH2 | 98.33 |  |
